{"source": "the supplement of paper PMC8728848", "assay_in_all_cases": "glycan array binding signal (z-score within array); higher = stronger binding", "conditions_in_all_cases": "glycan notation: IUPAC condensed, linker removed", "key": {"[1]": {"target": "Neu5Ac(a2-6)Gal(b1-4)GlcNAc(b1-2)Man(a1-3)[Neu5Ac(a2-3)Gal(b1-4)GlcNAc(b1-2)Man(a1-6)]Man(b1-4)GlcNAc(b1-4)GlcNAc", "method_in_brief": "(§1)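 Columns mapping to the same glycan were averaged after glycan names were converted to IUPAC-condensed notation. The data come from 3228 arrays in the Consortium for Functional Glycomics database, limited to those with an available protein sequence. Binding is reported as a within-array Z-score averaged across arrays of one protein sequence and across linkers.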"}, "[2]": {"target": "Neu5Ac(a2-6)Gal(b1-4)GlcNAc(b1-2)Man(a1-3)[Neu5Ac(a2-6)Gal(b1-4)GlcNAc(b1-2)Man(a1-6)]Man(b1-4)GlcNAc(b1-4)GlcNAc", "method_in_brief": "as §1"}, "[3]": {"target": "Neu5Ac(a2-6)Gal(b1-4)GlcNAc(b1-2)Man(a1-3)[Neu5Ac(a2-6)Gal(b1-4)GlcNAc(b1-2)Man(a1-6)]Man(b1-4)GlcNAc(b1-4)[Fuc(a1-6)]GlcNAc", "method_in_brief": "as §1"}, "[4]": {"target": "Neu5Ac(a2-6)Gal(b1-4)GlcNAc(b1-2)Man(a1-6)Man(b1-4)GlcNAc(b1-4)GlcNAc", "method_in_brief": "as §1"}, "[5]": {"target": "Neu5Ac(a2-6)Gal(b1-4)GlcNAc(b1-2)Man(a1-6)[Gal(b1-4)GlcNAc(b1-2)Man(a1-3)]Man(b1-4)GlcNAc(b1-4)GlcNAc", "method_in_brief": "as §1"}, "[6]": {"target": "Neu5Ac(a2-6)Gal(b1-4)GlcNAc(b1-2)Man(a1-6)[GlcNAc(b1-2)Man(a1-3)]Man(b1-4)GlcNAc(b1-4)GlcNAc", "method_in_brief": "as §1"}, "[7]": {"target": "Neu5Ac(a2-6)Gal(b1-4)GlcNAc(b1-2)Man(a1-6)[Man(a1-3)]Man(b1-4)GlcNAc(b1-4)GlcNAc", "method_in_brief": "as §1"}, "[8]": {"target": "Neu5Ac(a2-6)Gal(b1-4)GlcNAc(b1-2)[Neu5Ac(a2-6)Gal(b1-4)GlcNAc(b1-4)]Man(a1-3)[GlcNAc(b1-4)][Neu5Ac(a2-6)Gal(b1-4)GlcNAc(b1-2)[Neu5Ac(a2-6)Gal(b1-4)GlcNAc(b1-6)]Man(a1-6)]Man(b1-4)GlcNAc(b1-4)GlcNAc", "method_in_brief": "as §1"}, "[9]": {"target": "Neu5Ac(a2-6)Gal(b1-4)GlcNAc(b1-2)[Neu5Ac(a2-6)Gal(b1-4)GlcNAc(b1-4)]Man(a1-3)[GlcNAc(b1-4)][Neu5Ac(a2-6)Gal(b1-4)GlcNAc(b1-4)Man(a1-6)]Man(b1-4)GlcNAc(b1-4)GlcNAc", "method_in_brief": "as §1"}, "[10]": {"target": "Neu5Ac(a2-6)Gal(b1-4)GlcNAc(b1-2)[Neu5Ac(a2-6)Gal(b1-4)GlcNAc(b1-6)]Man(a1-6)[Neu5Ac(a2-6)Gal(b1-4)GlcNAc(b1-2)Man(a1-3)][GlcNAc(b1-4)]Man(b1-4)GlcNAc(b1-4)GlcNAc", "method_in_brief": "as §1"}, "[11]": {"target": "Neu5Ac(a2-6)Gal(b1-4)GlcNAc(b1-3)Gal(b1-3)GlcNAc", "method_in_brief": "as §1"}, "[12]": {"target": "Neu5Ac(a2-6)Gal(b1-4)GlcNAc(b1-3)Gal(b1-4)GlcNAc", "method_in_brief": "as §1"}, "[13]": {"target": "Neu5Ac(a2-6)Gal(b1-4)GlcNAc(b1-3)Gal(b1-4)GlcNAc(b1-2)Man(a1-3)[Neu5Ac(a2-6)Gal(b1-4)GlcNAc(b1-3)Gal(b1-4)GlcNAc(b1-2)Man(a1-6)]GalNAc", "method_in_brief": "as §1"}, "[14]": {"target": "Neu5Ac(a2-6)Gal(b1-4)GlcNAc(b1-3)Gal(b1-4)GlcNAc(b1-3)Gal(b1-4)GlcNAc", "method_in_brief": "as §1"}, "[15]": {"target": "Neu5Ac(a2-6)Gal(b1-4)GlcNAc(b1-3)Gal(b1-4)GlcNAc(b1-3)Gal(b1-4)GlcNAc(b1-2)Man(a1-3)[Neu5Ac(a2-6)Gal(b1-4)GlcNAc(b1-3)Gal(b1-4)GlcNAc(b1-3)Gal(b1-4)GlcNAc(b1-2)Man(a1-6)]GalNAc", "method_in_brief": "as §1"}, "[16]": {"target": "Neu5Ac(a2-6)Gal(b1-4)GlcNAc(b1-3)Gal(b1-4)GlcNAc(b1-3)GalNAc", "method_in_brief": "as §1"}, "[17]": {"target": "Neu5Ac(a2-6)Gal(b1-4)GlcNAc(b1-3)Gal(b1-4)GlcNAc(b1-3)[Neu5Ac(a2-6)Gal(b1-4)GlcNAc(b1-3)Gal(b1-4)GlcNAc(b1-6)]GalNAc", "method_in_brief": "as §1"}, "[18]": {"target": "Neu5Ac(a2-6)Gal(b1-4)GlcNAc(b1-3)Gal(b1-4)GlcNAc(b1-6)[Gal(b1-3)]GalNAc", "method_in_brief": "as §1"}, "[19]": {"target": "Neu5Ac(a2-6)Gal(b1-4)GlcNAc(b1-3)Gal(b1-4)[Fuc(a1-3)]GlcNAc(b1-3)Gal(b1-4)[Fuc(a1-3)]GlcNAc", "method_in_brief": "as §1"}, "[20]": {"target": "Neu5Ac(a2-6)Gal(b1-4)GlcNAc(b1-3)GalNAc", "method_in_brief": "as §1"}, "[21]": {"target": "Neu5Ac(a2-6)Gal(b1-4)GlcNAc(b1-3)[Neu5Ac(a2-6)Gal(b1-4)GlcNAc(b1-6)]GalNAc", "method_in_brief": "as §1"}, "[22]": {"target": "Neu5Ac(a2-6)Gal(b1-4)GlcNAc(b1-6)GalNAc", "method_in_brief": "as §1"}, "[23]": {"target": "Neu5Ac(a2-6)Gal(b1-4)GlcNAc(b1-6)[Gal(b1-3)GlcNAc(b1-3)]Gal(b1-4)Glc", "method_in_brief": "as §1"}, "[24]": {"target": "Neu5Ac(a2-6)Gal(b1-4)GlcNAc(b1-6)[Gal(b1-3)]GalNAc", "method_in_brief": "as §1"}, "[25]": {"target": "Neu5Ac(a2-6)Gal(b1-4)GlcNAc6S", "method_in_brief": "as §1"}, "Neu5Ac(a2-6)GalNAc": {"target": "Neu5Ac(a2-6)GalNAc", "method_in_brief": "as §1"}, "[26]": {"target": "Neu5Ac(a2-6)GalNAc(b1-4)GlcNAc", "method_in_brief": "as §1"}, "[27]": {"target": "Neu5Ac(a2-6)GalNAc(b1-4)GlcNAc6S", "method_in_brief": "as §1"}, "[28]": {"target": "Neu5Ac(a2-6)GlcNAc(b1-4)GlcNAc", "method_in_brief": "as §1"}, "[29]": {"target": "Neu5Ac(a2-6)GlcNAc(b1-4)GlcNAc(b1-4)GlcNAc", "method_in_brief": "as §1"}}, "note": "The other results are listed elsewhere or left out.", "data": [{"binder": "Pbx2CASH domain (Cryptococcus neoformans) (protein) GIPGPNRLYRLSGPIIFTAADQEIATYGYPTGSERAVLRVEGRNTATAIQGDCRRCARVSVKNLVVDGNRKKLGRMRDFQLATGLVVLGGNEGQSIQNSWIKNPRGFTAIHIREGDKLQCSGARVEKNEIGPVGEEYDPEKDGDDPEMSPLGRPLADGVSIACRDSFIRDNTFRDNTDAAIVVYCSPGTLIHA", "values": [{"measurement": "glycan array binding signal (z-score)", "setting": "[1]", "value": -0.593}, {"measurement": "glycan array binding signal (z-score)", "setting": "[2]", "value": -0.301}, {"measurement": "glycan array binding signal (z-score)", "setting": "[3]", "value": -0.266}, {"measurement": "glycan array binding signal (z-score)", "setting": "[4]", "value": 1.6}, {"measurement": "glycan array binding signal (z-score)", "setting": "[5]", "value": 0.273}, {"measurement": "glycan array binding signal (z-score)", "setting": "[6]", "value": -0.378}, {"measurement": "glycan array binding signal (z-score)", "setting": "[7]", "value": 2.48}, {"measurement": "glycan array binding signal (z-score)", "setting": "[8]", "value": 0.209}, {"measurement": "glycan array binding signal (z-score)", "setting": "[9]", "value": 0.435}, {"measurement": "glycan array binding signal (z-score)", "setting": "[10]", "value": 1.59}, {"measurement": "glycan array binding signal (z-score)", "setting": "[11]", "value": -0.059}, {"measurement": "glycan array binding signal (z-score)", "setting": "[12]", "value": -0.419}, {"measurement": "glycan array binding signal (z-score)", "setting": "[13]", "value": 0.75}, {"measurement": "glycan array binding signal (z-score)", "setting": "[14]", "value": -0.618}, {"measurement": "glycan array binding signal (z-score)", "setting": "[15]", "value": 4.62}, {"measurement": "glycan array binding signal (z-score)", "setting": "[16]", "value": 0.35}, {"measurement": "glycan array binding signal (z-score)", "setting": "[17]", "value": 0.226}, {"measurement": "glycan array binding signal (z-score)", "setting": "[18]", "value": 1.68}, {"measurement": "glycan array binding signal (z-score)", "setting": "[19]", "value": -0.252}, {"measurement": "glycan array binding signal (z-score)", "setting": "[20]", "value": -0.102}, {"measurement": "glycan array binding signal (z-score)", "setting": "[21]", "value": 0.544}, {"measurement": "glycan array binding signal (z-score)", "setting": "[22]", "value": 1.05}, {"measurement": "glycan array binding signal (z-score)", "setting": "[23]", "value": -0.698}, {"measurement": "glycan array binding signal (z-score)", "setting": "[24]", "value": 0.333}, {"measurement": "glycan array binding signal (z-score)", "setting": "[25]", "value": 2.1}, {"measurement": "glycan array binding signal (z-score)", "setting": "Neu5Ac(a2-6)GalNAc", "value": -0.729}, {"measurement": "glycan array binding signal (z-score)", "setting": "[26]", "value": -0.343}, {"measurement": "glycan array binding signal (z-score)", "setting": "[27]", "value": -0.471}, {"measurement": "glycan array binding signal (z-score)", "setting": "[28]", "value": -0.404}, {"measurement": "glycan array binding signal (z-score)", "setting": "[29]", "value": -0.208}]}]}
